Laboratory results from PMC3534229.
For at least one entry, the source does not settle the construct or the ends of the probe. Where cells or extracts were used, other partners may take part. For some assays here: A negative result means that nothing was seen under these conditions.

By UniProt entry, the sequences of proteins in these tests, tags left out.
UniProt P08047, whole entry: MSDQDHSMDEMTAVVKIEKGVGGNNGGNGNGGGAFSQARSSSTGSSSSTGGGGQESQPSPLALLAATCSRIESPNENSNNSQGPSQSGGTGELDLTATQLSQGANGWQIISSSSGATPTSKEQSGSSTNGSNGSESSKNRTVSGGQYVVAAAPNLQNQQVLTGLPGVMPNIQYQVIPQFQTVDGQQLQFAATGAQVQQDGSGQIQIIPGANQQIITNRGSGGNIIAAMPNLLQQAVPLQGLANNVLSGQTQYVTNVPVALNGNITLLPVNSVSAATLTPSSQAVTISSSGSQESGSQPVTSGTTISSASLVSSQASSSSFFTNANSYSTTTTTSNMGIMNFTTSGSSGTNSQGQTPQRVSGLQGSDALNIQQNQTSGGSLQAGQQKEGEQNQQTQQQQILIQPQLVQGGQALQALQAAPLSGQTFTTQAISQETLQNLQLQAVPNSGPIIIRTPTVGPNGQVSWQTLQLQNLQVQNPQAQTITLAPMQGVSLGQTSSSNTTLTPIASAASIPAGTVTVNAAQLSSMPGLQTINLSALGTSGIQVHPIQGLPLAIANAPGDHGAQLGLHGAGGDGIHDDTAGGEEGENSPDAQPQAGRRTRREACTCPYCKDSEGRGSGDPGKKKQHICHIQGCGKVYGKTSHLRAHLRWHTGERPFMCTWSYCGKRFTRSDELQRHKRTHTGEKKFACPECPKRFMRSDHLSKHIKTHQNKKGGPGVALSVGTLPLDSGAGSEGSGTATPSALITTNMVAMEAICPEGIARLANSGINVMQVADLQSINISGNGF

What was measured:
Sp1 [1] = target: Sp1 (UniProt P08047); experiment: competition with a labelled probe; conditions: 50-fold molar excess unlabeled mutant did not compete for the Sp1 band; HeLa nuclear extract; preincubation with competitor or antibody 1 h at 4°C, then labeled probe 30 min at room temperature; salt and pH not given (cited method); protein in an extract; label: none (unlabeled competitor)
Sp1 [2] = target: Sp1 (UniProt P08047); experiment: EMSA supershift; conditions: anti-Sp1 supershifts the band, band stronger in extract of 32°C than 37°C cells, competed by 50-fold excess unlabeled wt; HeLa nuclear extract; preincubation with competitor or antibody 1 h at 4°C, then labeled probe 30 min at room temperature; salt and pH not given (cited method); protein in an extract; label: 32P

Sequence | binding result (Sp1 [1]) | binding result (Sp1 [2])
TCAGCTGTCCAAGCCTCCTAGT (double strand) [MCRE mutant competitor (mt)] | no binding | 
TCAGCTGTCCCCGCCTCCTAGT (double strand) [MCRE probe (wt)] |  | binds
